Values from PubChem BioAssay AID1259308 (NCATS, 2017).
Assay: 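Genes whose loss raises luciferase production in HEK293 cells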 (primary screen). Cell system: human HEK293 embryonic kidney cells stably expressing firefly luciferase (HEK-CMV-Luc2-Hygro). Knock-down reagent: single siRNA against human genes, 0.8 pmol siRNA per well. Timing: 72 h. Read-out: 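Luciferase light (ONE-Glo) measured on one replicate plate set and viability (CellTiter-Glo) on the other, scaled to a negative control siRNA, with robust z-scores and luciferase per cell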. Scale: total luciferase, z-score and total luciferase, % of control: higher = more reporter protein produced; luciferase per cell, z-score: higher = more reporter output per viable cell; viable cells, % of control: higher = more viable cells. Hit rule: 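Active when the median/MAD z-score for overall luciferase is greater than 3; a gene was taken forward for validation with new siRNAs if at least two of its three siRNAs passed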. Meaning of the calls: active = raised luciferase; inactive = no rise.
Shown is an unselected part of about 59,000 reagents. Of all reagents, about 1,510 (2.6%) are marked active. 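Calls use total luciferase alone and ignore viability, so some active siRNAs may act by altering cell number.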 Entries without a mark were called inactive.

| target | PubChem SID | total luciferase, z-score | total luciferase, % of control | luciferase per cell, z-score | viable cells, % of control |
| --- | --- | --- | --- | --- | --- |
| SARDH | SID160754951 | -0.51 | 71.7 | -0.524 | 92 |
| SARDH | SID160754962 | -0.443 | 73.1 | -1.22 | 113 |
| SARDH | SID160754974 | 0.172 | 85.3 | -0.0945 | 97.7 |
| LINC01587 | SID160725957 | 2.79 | 137 | 2.59 | 77.8 |
| LINC01587 | SID160725970 | -1.47 | 52.7 | -0.639 | 69.7 |
| LINC01587 | SID160732265 | 0.677 | 95.3 | 0.68 | 89.1 |
| RPS15AP34 | SID160725270 | 2.41 | 130 | 2.24 | 80.4 |
| RPS15AP34 | SID160766563 | -2.31 | 36 | -1.1 | 53.7 |
| RPS15AP34 | SID160766564 | 0.567 | 93.2 | 0.665 | 87.4 |
| DNALI1 | SID160719357 | -0.364 | 74.7 | 0.605 | 71.1 |
| DNALI1 | SID160719359 | 0.0195 | 82.3 | 0.0511 | 90.7 |
| DNALI1 | SID160719360 | 8.4 (active) | 249 | 3.29 | 117 |
| HEBP1 | SID160739789 | 3.63 (active) | 154 | 2.34 | 93.1 |
| HEBP1 | SID160739790 | -0.143 | 79 | -0.04 | 89.3 |
| HEBP1 | SID160739792 | -0.751 | 67 | -0.478 | 84.9 |
| SPAG9 | SID160721326 | -0.866 | 64.7 | -1.32 | 102 |
| SPAG9 | SID160721327 | 0.683 | 95.5 | -0.0872 | 109 |
| SPAG9 | SID160721328 | -1.34 | 55.3 | -0.354 | 67.9 |
| CKAP2L | SID160758978 | 2.92 | 140 | 2.4 | 83.1 |
| CKAP2L | SID160758979 | -0.434 | 73.3 | -0.133 | 84.8 |
| CKAP2L | SID160758980 | -1.51 | 51.9 | -0.918 | 73.8 |
| STARD9 | SID160746163 | -2.34 | 35.3 | -2.44 | 75 |
| STARD9 | SID160746164 | 1.54 | 113 | 1.7 | 80.4 |
| STARD9 | SID160746166 | 0.5 | 91.8 | 0.359 | 93.4 |
| ZNF26 | SID160719041 | 1.64 | 114 | 0.84 | 102 |
| ZNF26 | SID160719042 | -0.533 | 71.3 | -0.736 | 96.7 |
| ZNF26 | SID160719043 | -0.146 | 79 | -0.123 | 91.2 |
| PPP1R3A | SID160714768 | 0.335 | 88.6 | 0.154 | 95 |
| PPP1R3A | SID160714769 | -0.795 | 66.1 | -1.28 | 103 |
| PPP1R3A | SID160714770 | -1.66 | 49 | -2.23 | 98.3 |
| PRKRIP1 | SID160749239 | 1.71 | 116 | 1.42 | 89 |
| PRKRIP1 | SID160749240 | 1.27 | 107 | 2.98 | 54.7 |
| PRKRIP1 | SID160749241 | -1.97 | 42.6 | 0.921 | 37.4 |
| PRKAR2B | SID160714922 | -0.975 | 62.5 | 0.0325 | 69.2 |
| PRKAR2B | SID160714924 | -0.537 | 71.2 | -0.466 | 89.9 |
| PRKAR2B | SID160714925 | -0.159 | 78.7 | 0.11 | 85.5 |

The list goes on; the last 4 above are carried over.
| target | PubChem SID | total luciferase, z-score | total luciferase, % of control | luciferase per cell, z-score | viable cells, % of control |
| --- | --- | --- | --- | --- | --- |
| PRKRIP1 | SID160749241 | -1.97 | 42.6 | 0.921 | 37.4 |
| PRKAR2B | SID160714922 | -0.975 | 62.5 | 0.0325 | 69.2 |
| PRKAR2B | SID160714924 | -0.537 | 71.2 | -0.466 | 89.9 |
| PRKAR2B | SID160714925 | -0.159 | 78.7 | 0.11 | 85.5 |
| KCTD11 | SID160758468 | -0.288 | 76.2 | 0.309 | 78.5 |
| KCTD11 | SID160758469 | -0.449 | 73 | -0.0945 | 83.6 |
| KCTD11 | SID160758470 | -2.26 | 37 | -1.98 | 69.7 |
| FNDC10 | SID160725692 | 3.45 (active) | 150 | 2.34 | 90.9 |
| FNDC10 | SID160769064 | 0.601 | 93.8 | -0.235 | 112 |
| FNDC10 | SID160769065 | -2.01 | 41.8 | -2.42 | 88.5 |
| MGAT1 | SID160777197 | 0.137 | 84.6 | 0.442 | 84.2 |
| MGAT1 | SID160777198 | -2 | 42 | -1.39 | 67.8 |
| MGAT1 | SID160777199 | -1.87 | 44.6 | -1.93 | 82.9 |
| ANPEP | SID160775234 | 0.0522 | 82.9 | -0.475 | 105 |
| ANPEP | SID160775244 | -0.0465 | 81 | -0.767 | 111 |
| ANPEP | SID160775255 | -0.739 | 67.2 | -1.07 | 99.5 |
| PNRC2 | SID160743948 | 1.52 | 112 | 1.12 | 93.3 |
| PNRC2 | SID160743949 | 3.53 (active) | 152 | 2.13 | 97 |
| PNRC2 | SID160743950 | -0.239 | 77.1 | -0.107 | 88.7 |
| GPR84 | SID160741469 | 0.306 | 88 | 0.419 | 88 |
| GPR84 | SID160741470 | 2.33 | 128 | 2.23 | 79.7 |
| GPR84 | SID160741471 | -0.353 | 74.9 | -0.789 | 103 |
| LIG4 | SID160776615 | 0.262 | 87.1 | -0.276 | 105 |
| LIG4 | SID160776617 | 2.24 | 127 | 1.46 | 96.2 |
| LIG4 | SID160776618 | -1.13 | 59.3 | -1.05 | 87.4 |
